PubChem BioAssay AID1053208 | Peter MacCallum Cancer Centre | 2014

Screen: 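Synthetic lethal interactions between gene loss and doxorubicin in osteosarcoma cells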 (primary screen)
Cells: mouse osteosarcoma cells, early-passage culture from an engineered mouse model of fibroblastic bone tumour
Reagent: siRNA pool against mouse genes, 40 nM
Timing: about 120 h (48 h before drug, then 72 h with drug)
Treatment: doxorubicin 100 nM for 72 h, roughly 30-40% inhibitory dose
Measurement: 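Luminescent ATP signal taken as viability with or without 100 nM doxorubicin for 72 h; mean of two wells set against non-targeting siRNA and turned into robust z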
Direction: viability z-score with doxorubicin and doxorubicin viability vs non-targeting: higher = more viable cells under doxorubicin; viability z-score without drug: higher = more viable cells with knock-down alone; z-score of drug to no-drug ratio: higher = less drug sensitisation by knock-down
Hit rule: 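Called active if knock-down leaves viability unchanged without drug (z within -2 to 2) but lowers it with doxorubicin (z at or under -2)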
This is a random part of about 17,000 reagents. 788 of them (4.7%) were called active. 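Calls rest on z-score classes alone; an extra cut-off of viability at most 70% of control was not applied to them.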

| target | combined z-score class | viability z-score with doxorubicin | viability z-score without drug | z-score of drug to no-drug ratio | doxorubicin viability vs non-targeting | outcome |
| --- | --- | --- | --- | --- | --- | --- |
| Smarcd1 (SWI/SNF related BAF chromatin remodeling complex subunit D1) | no change with or without drug | 0.11 | -0.51 | 0.56 | 0.95 | inactive |
| Bcap31 (B cell receptor associated protein 31) | low cell count without drug only | -1.12 | -2.87 | 1.12 | 0.84 | inactive |
| Arhgap24 (Rho GTPase activating protein 24) | no change with or without drug | -1.12 | 0.51 | -1.35 | 0.84 | inactive |
| Clec1b (C-type lectin domain family 1, member b) | no change with or without drug | 1.24 | -1.01 | 2.25 | 1.05 | inactive |
| Aqp9 (aquaporin 9) | no change with or without drug | -0.22 | -1.52 | 1.01 | 0.92 | inactive |
| Paics | no change with or without drug | 0.34 | -0.67 | 1.01 | 0.97 | inactive |
| Synj2 (synaptojanin 2) | no change with or without drug | 1.8 | 1.01 | 1.24 | 1.1 | inactive |
| Fblim1 (filamin binding LIM protein 1) | no change with or without drug | -0.56 | 0.34 | -0.67 | 0.89 | inactive |
| Ifi204 (interferon activated gene 204) | no change with or without drug | -0.9 | -0.84 | -0.22 | 0.86 | inactive |
| Smim5 (small integral membrane protein 5) | no change with or without drug | -1.8 | -0.84 | -1.24 | 0.78 | inactive |
| Zfp646 (zinc finger protein 646) | no change with or without drug | -0.9 | -0.84 | -0.22 | 0.86 | inactive |
| Sox21 (SRY (sex determining region Y)-box 21) | no change with or without drug | -0.22 | -1.18 | 0.79 | 0.92 | inactive |
| Hsd3b5 | no change with or without drug | 0.45 | 0.17 | 0.45 | 0.98 | inactive |
| Cd209b (CD209b antigen) | high cell count with doxorubicin only | 2.25 | 0.67 | 1.91 | 1.14 | inactive |
| Ubr3 (ubiquitin protein ligase E3 component n-recognin 3) | no change with or without drug | -0.9 | 0.67 | -1.24 | 0.86 | inactive |
| Tnn (tenascin N) | low cell count with doxorubicin only | -2.7 | 0.51 | -3.04 | 0.7 | active |
| Lrrc56 (leucine rich repeat containing 56) | no change with or without drug | 0 | 0.67 | -0.34 | 0.94 | inactive |
| Klre1 (killer cell lectin-like receptor family E member 1) | no change with or without drug | -1.57 | -1.52 | -0.56 | 0.8 | inactive |
| Uxt (ubiquitously expressed prefoldin like chaperone) | no change with or without drug | -0.67 | -0.84 | 0 | 0.88 | inactive |
| Krtap19-9b (keratin associated protein 19-9B) | no change with or without drug | 0.34 | -1.52 | 1.69 | 0.97 | inactive |
| Lrrc20 (leucine rich repeat containing 20) | low cell count with doxorubicin only | -2.59 | -1.85 | -1.46 | 0.71 | active |
| Rpl5 (ribosomal protein L5) | low cell count with and without drug | -6.07 | -5.73 | -3.6 | 0.4 | inactive |
| Lce1d (late cornified envelope 1D) | high cell count with doxorubicin only | 2.25 | 1.52 | 1.35 | 1.14 | inactive |
| Or8k22 (olfactory receptor family 8 subfamily K member 22) | no change with or without drug | 0.67 | -0.17 | 0.9 | 1 | inactive |
| Gpr161 (G protein-coupled receptor 161) | no change with or without drug | 1.12 | 1.52 | 0.22 | 1.04 | inactive |
| Abca7 (ATP-binding cassette, sub-family A member 7) | no change with or without drug | -0.22 | -0.17 | 0 | 0.92 | inactive |
| Prps1 (phosphoribosyl pyrophosphate synthetase 1) | no change with or without drug | -0.45 | -0.51 | 0 | 0.9 | inactive |
| Rngtt (RNA guanylyltransferase and 5'-phosphatase) | no change with or without drug | -0.22 | -1.18 | 0.79 | 0.92 | inactive |
| Or13c7 (olfactory receptor family 13 subfamily C member 7) | no change with or without drug | -1.12 | -1.52 | 0 | 0.84 | inactive |
| Defb41 (defensin beta 41) | no change with or without drug | -0.34 | -0.17 | -0.11 | 0.91 | inactive |
| Mlh1 (mutL homolog 1) | no change with or without drug | -0.67 | 0.34 | -0.79 | 0.88 | inactive |
| Rnf34 (ring finger protein 34) | no change with or without drug | -1.57 | -0.84 | -1.01 | 0.8 | inactive |
| Mzf1 (myeloid zinc finger 1) | high cell count with and without drug | 2.14 | 4.55 | -0.56 | 1.13 | inactive |
| Prss27 (serine protease 27) | low cell count without drug only | 0.9 | -2.53 | 3.26 | 1.02 | inactive |
